Data on 1 molecule can be found in article PMC13323771.

No constants are given. Whether binding was seen depends on the method and setting. Binding seen in cells or lysates may run through a third protein. Some results given as binding are weak or reduced against the parent protein; the word gives no strength. Where a sequence is shown, tags or fusion partners need not be part of it.

This assay has as its target T1, YFP:Kin-12F (AtRPS5a»Dex»YFP:Kin-12F) (Arabidopsis thaliana) (UniProt F4JDI6).
T1 sequence: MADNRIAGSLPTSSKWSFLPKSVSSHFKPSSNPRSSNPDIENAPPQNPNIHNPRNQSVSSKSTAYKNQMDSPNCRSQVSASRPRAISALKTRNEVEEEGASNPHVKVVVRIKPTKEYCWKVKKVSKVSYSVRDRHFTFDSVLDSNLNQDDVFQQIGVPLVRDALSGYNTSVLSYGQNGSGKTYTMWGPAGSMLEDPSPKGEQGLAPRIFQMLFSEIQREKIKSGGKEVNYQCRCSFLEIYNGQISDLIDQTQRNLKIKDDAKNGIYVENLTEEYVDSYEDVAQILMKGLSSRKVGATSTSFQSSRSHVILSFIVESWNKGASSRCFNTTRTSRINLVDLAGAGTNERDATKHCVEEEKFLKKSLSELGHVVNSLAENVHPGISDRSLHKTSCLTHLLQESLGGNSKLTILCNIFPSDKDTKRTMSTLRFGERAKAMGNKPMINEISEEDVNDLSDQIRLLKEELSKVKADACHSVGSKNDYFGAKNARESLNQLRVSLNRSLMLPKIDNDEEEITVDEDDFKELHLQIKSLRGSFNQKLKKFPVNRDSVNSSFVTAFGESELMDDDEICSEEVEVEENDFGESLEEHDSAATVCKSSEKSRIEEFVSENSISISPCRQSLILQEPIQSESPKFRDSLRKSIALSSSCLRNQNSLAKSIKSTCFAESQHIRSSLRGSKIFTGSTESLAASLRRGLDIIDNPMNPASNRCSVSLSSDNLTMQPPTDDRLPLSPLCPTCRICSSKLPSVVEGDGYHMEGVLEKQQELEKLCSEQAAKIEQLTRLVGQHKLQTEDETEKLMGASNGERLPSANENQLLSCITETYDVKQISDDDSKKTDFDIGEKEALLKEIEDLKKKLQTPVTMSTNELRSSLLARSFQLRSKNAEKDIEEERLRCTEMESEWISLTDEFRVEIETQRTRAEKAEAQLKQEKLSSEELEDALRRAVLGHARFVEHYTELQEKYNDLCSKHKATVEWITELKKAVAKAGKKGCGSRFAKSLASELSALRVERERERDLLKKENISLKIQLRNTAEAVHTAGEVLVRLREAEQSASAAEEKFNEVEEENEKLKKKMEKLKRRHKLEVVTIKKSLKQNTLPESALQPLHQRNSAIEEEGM
Kind of assay: co-IP; extract of Arabidopsis seedlings (20 µM Dex for 16 h) in buffer with 2% CHAPS, cross-linked with 1 mM DTSSP, µMACS anti-GFP magnetic beads, blots with anti-GFP and anti-RAB-A2a.

B1: mCherry:RAB-A2a (p35S::mCherry:RAB-A2a) (protein, UniProt O04486 1-217)
chain: MARRPDEEYDYLFKVVLIGDSGVGKSNLLSRFTRNEFCLESKSTIGVEFATRTLQVEGRTVKAQIWDTAGQERYRAITSAYYRGALGALLVYDVTKPTTFENVSRWLKELRDHADSNIVIMLIGNKTDLKHLRAVATEDAQSYAEKEGLSFIETSALEALNVEKAFQTILSEVYRIISKKSISSDQTTANANIKEGQTIDVAATSESNAKKPCCSSS
For B1, the binding entry is recorded as “binds”.
